# The other results are listed elsewhere or left out.
# Experiments:
# Test in all cases: glycan array binding signal (z-score within array); higher = stronger binding
# Conditions in all cases: glycan notation: IUPAC condensed, linker removed
# [1] = molecular target: GlcNAc(b1-3)Gal(b1-4)GlcNAc(b1-3)Gal(b1-4)GlcNAc(b1-2)Man(a1-3)[GlcNAc(b1-3)Gal(b1-4)GlcNAc(b1-3)Gal(b1-4)GlcNAc(b1-2)Man(a1-6)]Man(b1-4)GlcNAc(b1-4)[Fuc(a1-6)]GlcNAc
# Procedure, shortened: (§1)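 Glycan array data were curated from 3228 arrays in the Consortium for Functional Glycomics database and kept only where the protein sequence was available. Glycan names were converted to IUPAC-condensed notation, and columns mapping to the same glycan were averaged. The binding signal is a within-array Z-score, averaged across arrays of the same protein sequence at different concentrations or buffers and across linkers. Negative Z-scores can be read as non-binding.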
# [2] = molecular target: GlcNAc(b1-3)Gal(b1-4)GlcNAc(b1-3)Gal(b1-4)GlcNAc(b1-2)[GlcNAc(b1-3)Gal(b1-4)GlcNAc(b1-3)Gal(b1-4)GlcNAc(b1-6)]Man(a1-6)[GlcNAc(b1-3)Gal(b1-4)GlcNAc(b1-3)Gal(b1-4)GlcNAc(b1-2)Man(a1-3)]Man(b1-4)GlcNAc(b1-4)[Fuc(a1-6)]GlcNAc
# Procedure, shortened: as §1
# [3] = molecular target: GlcNAc(b1-3)Gal(b1-4)GlcNAc(b1-3)Gal(b1-4)GlcNAc(b1-3)Gal(b1-4)GlcNAc(b1-2)Man(a1-3)[GlcNAc(b1-3)Gal(b1-4)GlcNAc(b1-3)Gal(b1-4)GlcNAc(b1-3)Gal(b1-4)GlcNAc(b1-2)Man(a1-6)]Man(b1-4)GlcNAc(b1-4)GlcNAc
# Procedure, shortened: as §1
# [4] = molecular target: GlcNAc(b1-3)Gal(b1-4)GlcNAc(b1-3)Gal(b1-4)GlcNAc(b1-3)Gal(b1-4)GlcNAc(b1-2)Man(a1-3)[GlcNAc(b1-3)Gal(b1-4)GlcNAc(b1-3)Gal(b1-4)GlcNAc(b1-3)Gal(b1-4)GlcNAc(b1-2)Man(a1-6)]Man(b1-4)GlcNAc(b1-4)[Fuc(a1-6)]GlcNAc
# Procedure, shortened: as §1
# [5] = molecular target: GlcNAc(b1-3)Gal(b1-4)GlcNAc(b1-3)Gal(b1-4)GlcNAc(b1-3)Gal(b1-4)GlcNAc(b1-2)[GlcNAc(b1-3)Gal(b1-4)GlcNAc(b1-3)Gal(b1-4)GlcNAc(b1-3)Gal(b1-4)GlcNAc(b1-6)]Man(a1-6)[GlcNAc(b1-3)Gal(b1-4)GlcNAc(b1-3)Gal(b1-4)GlcNAc(b1-3)Gal(b1-4)GlcNAc(b1-2)Man(a1-3)]Man(b1-4)GlcNAc(b1-4)[Fuc(a1-6)]GlcNAc
# Procedure, shortened: as §1
# [6] = molecular target: GlcNAc(b1-3)Gal(b1-4)GlcNAc(b1-3)Gal(b1-4)GlcNAc(b1-3)Gal(b1-4)GlcNAc(b1-3)Gal(b1-4)GlcNAc(b1-2)Man(a1-3)[GlcNAc(b1-3)Gal(b1-4)GlcNAc(b1-3)Gal(b1-4)GlcNAc(b1-3)Gal(b1-4)GlcNAc(b1-3)Gal(b1-4)GlcNAc(b1-2)Man(a1-6)]Man(b1-4)GlcNAc(b1-4)GlcNAc
# Procedure, shortened: as §1
# [7] = molecular target: GlcNAc(b1-3)Gal(b1-4)GlcNAc(b1-3)Gal(b1-4)GlcNAc(b1-3)Gal(b1-4)GlcNAc(b1-3)Gal(b1-4)GlcNAc(b1-2)Man(a1-3)[GlcNAc(b1-3)Gal(b1-4)GlcNAc(b1-3)Gal(b1-4)GlcNAc(b1-3)Gal(b1-4)GlcNAc(b1-3)Gal(b1-4)GlcNAc(b1-2)Man(a1-6)]Man(b1-4)GlcNAc(b1-4)[Fuc(a1-6)]GlcNAc
# Procedure, shortened: as §1
# [8] = molecular target: GlcNAc(b1-3)Gal(b1-4)GlcNAc(b1-3)Gal(b1-4)GlcNAc(b1-3)Gal(b1-4)GlcNAc(b1-3)Gal(b1-4)GlcNAc(b1-2)[GlcNAc(b1-3)Gal(b1-4)GlcNAc(b1-3)Gal(b1-4)GlcNAc(b1-3)Gal(b1-4)GlcNAc(b1-3)Gal(b1-4)GlcNAc(b1-6)]Man(a1-6)[GlcNAc(b1-3)Gal(b1-4)GlcNAc(b1-3)Gal(b1-4)GlcNAc(b1-3)Gal(b1-4)GlcNAc(b1-3)Gal(b1-4)GlcNAc(b1-2)Man(a1-3)]Man(b1-4)GlcNAc(b1-4)[Fuc(a1-6)]GlcNAc
# Procedure, shortened: as §1
# [9] = molecular target: GlcNAc(b1-3)Gal(b1-4)GlcNAc(b1-3)Gal(b1-4)GlcNAc(b1-3)GalNAc
# Procedure, shortened: as §1
# [10] = molecular target: GlcNAc(b1-3)Gal(b1-4)GlcNAc(b1-3)GalNAc
# Procedure, shortened: as §1
# [11] = molecular target: GlcNAc(b1-3)Gal(b1-4)GlcNAc(b1-3)[GlcNAc(b1-3)Gal(b1-4)GlcNAc(b1-3)]GalNAc
# Procedure, shortened: as §1
# [12] = molecular target: GlcNAc(b1-3)Gal(b1-4)GlcNAc(b1-6)[Gal(b1-3)]GalNAc
# Procedure, shortened: as §1
# [13] = molecular target: GlcNAc(b1-3)Gal(b1-4)GlcNAc(b1-6)[GlcNAc(b1-3)Gal(b1-3)]GalNAc
# Procedure, shortened: as §1
# [14] = molecular target: GlcNAc(b1-3)Gal(b1-4)GlcNAc(b1-6)[GlcNAc(b1-3)]Gal(b1-4)GlcNAc
# Procedure, shortened: as §1
# [15] = molecular target: GlcNAc(b1-3)GalNAc
# Procedure, shortened: as §1
# [16] = molecular target: GlcNAc(b1-3)Man
# Procedure, shortened: as §1
# [17] = molecular target: GlcNAc(b1-3)[GlcNAc(b1-4)][GlcNAc(b1-6)]GlcNAc
# Procedure, shortened: as §1
# [18] = molecular target: GlcNAc(b1-3)[GlcNAc(b1-6)]Gal(b1-4)GlcNAc
# Procedure, shortened: as §1
# [19] = molecular target: GlcNAc(b1-3)[GlcNAc(b1-6)]GalNAc
# Procedure, shortened: as §1
# [20] = molecular target: GlcNAc(b1-4)Gal(b1-4)GlcNAc
# Procedure, shortened: as §1
# [21] = molecular target: GlcNAc(b1-4)GlcNAc
# Procedure, shortened: as §1
# [22] = molecular target: GlcNAc(b1-4)GlcNAc(b1-4)GlcNAc
# Procedure, shortened: as §1
# [23] = molecular target: GlcNAc(b1-4)GlcNAc(b1-4)GlcNAc(b1-4)GlcNAc(b1-4)GlcNAc
# Procedure, shortened: as §1
binder,measurement,setting,value
PX14343C-bfa-541-26-541 (Bacteroides fragilis) (protein) KAPLDEIADDSFWSDETLVKYYVNDLYSEISVDGLQLQENRSDNSVSAQRDKYRASWFKFNYDMVSASDPQDDDVWEDYYVKVRKCNRFFERIGTSTIEESEKSRLTGEVHFLRAMFYFEMVKRYGGVILLDKVLTMEDNWEIPRSSEKECYDFILEDLKKATEMLPASYGSREKGRATKGAAYALKSRVELYDKRYEDVIKSCAEVYKLGYELVDGTTPEKYRSIWWTTNKDNKEIIFDVQYKSPDVYNNMMVCNMVTYINDKYGDRGWGGLGPTQELIDAFEMADGTPATQYSQAPADQVFDINTCGIYEGREPRFYANIVFHGSQIFFNADKGAVTVDRYLMDTPDKGDGSLTGYNVWKWIDYDNYNYPYAGAGSPDFSTNWIILRYAEIYLNDAEARLETGDVEGARKAVNMIRQRVGLPDLTESDPEKLRELIRKERRIEFAFEEQRFYDVRRWKIGPETQTTLHGVRFVSPTEFKVTKTDIRTWNDRLYLTPVPHDEIVRSSVLKQNLGY,glycan array binding signal (z-score),[1],0.475
same,glycan array binding signal (z-score),[2],0.203
same,glycan array binding signal (z-score),[3],-0.345
same,glycan array binding signal (z-score),[4],0.742
same,glycan array binding signal (z-score),[5],-1.07
same,glycan array binding signal (z-score),[6],0.029
same,glycan array binding signal (z-score),[7],0.103
same,glycan array binding signal (z-score),[8],0.52
same,glycan array binding signal (z-score),[9],-0.553
same,glycan array binding signal (z-score),[10],0.215
same,glycan array binding signal (z-score),[11],-0.69
same,glycan array binding signal (z-score),[12],0.164
same,glycan array binding signal (z-score),[13],-0.265
same,glycan array binding signal (z-score),[14],0.526
same,glycan array binding signal (z-score),[15],0.038
same,glycan array binding signal (z-score),[16],-0.424
same,glycan array binding signal (z-score),[17],-0.45
same,glycan array binding signal (z-score),[18],0.293
same,glycan array binding signal (z-score),[19],-0.521
same,glycan array binding signal (z-score),[20],-0.788
same,glycan array binding signal (z-score),[21],-0.488
same,glycan array binding signal (z-score),[22],0.281
same,glycan array binding signal (z-score),[23],-1.29

# An excerpt of these results, bar-delimited:
binder | measurement | setting | value
PX14343C-bfa-541-26-541 (Bacteroides fragilis) (protein) KAPLDEIADDSFWSDETLVKYYVNDLYSEISVDGLQLQENRSDNSVSAQRDKYRASWFKFNYDMVSASDPQDDDVWEDYYVKVRKCNRFFERIGTSTIEESEKSRLTGEVHFLRAMFYFEMVKRYGGVILLDKVLTMEDNWEIPRSSEKECYDFILEDLKKATEMLPASYGSREKGRATKGAAYALKSRVELYDKRYEDVIKSCAEVYKLGYELVDGTTPEKYRSIWWTTNKDNKEIIFDVQYKSPDVYNNMMVCNMVTYINDKYGDRGWGGLGPTQELIDAFEMADGTPATQYSQAPADQVFDINTCGIYEGREPRFYANIVFHGSQIFFNADKGAVTVDRYLMDTPDKGDGSLTGYNVWKWIDYDNYNYPYAGAGSPDFSTNWIILRYAEIYLNDAEARLETGDVEGARKAVNMIRQRVGLPDLTESDPEKLRELIRKERRIEFAFEEQRFYDVRRWKIGPETQTTLHGVRFVSPTEFKVTKTDIRTWNDRLYLTPVPHDEIVRSSVLKQNLGY | glycan array binding signal (z-score) | [5] | -1.07
same | glycan array binding signal (z-score) | [6] | 0.029
